Data reported in the supplement of paper PMC10849652.
The other results are listed elsewhere or left out.

Protein sequences, listed by entry. Tags and fused reporters are not part of them. Lines headed by an entry give the natural chain unless they say otherwise; changes in a name come on top.
UniProt Q5T4S7, whole entry, looked up: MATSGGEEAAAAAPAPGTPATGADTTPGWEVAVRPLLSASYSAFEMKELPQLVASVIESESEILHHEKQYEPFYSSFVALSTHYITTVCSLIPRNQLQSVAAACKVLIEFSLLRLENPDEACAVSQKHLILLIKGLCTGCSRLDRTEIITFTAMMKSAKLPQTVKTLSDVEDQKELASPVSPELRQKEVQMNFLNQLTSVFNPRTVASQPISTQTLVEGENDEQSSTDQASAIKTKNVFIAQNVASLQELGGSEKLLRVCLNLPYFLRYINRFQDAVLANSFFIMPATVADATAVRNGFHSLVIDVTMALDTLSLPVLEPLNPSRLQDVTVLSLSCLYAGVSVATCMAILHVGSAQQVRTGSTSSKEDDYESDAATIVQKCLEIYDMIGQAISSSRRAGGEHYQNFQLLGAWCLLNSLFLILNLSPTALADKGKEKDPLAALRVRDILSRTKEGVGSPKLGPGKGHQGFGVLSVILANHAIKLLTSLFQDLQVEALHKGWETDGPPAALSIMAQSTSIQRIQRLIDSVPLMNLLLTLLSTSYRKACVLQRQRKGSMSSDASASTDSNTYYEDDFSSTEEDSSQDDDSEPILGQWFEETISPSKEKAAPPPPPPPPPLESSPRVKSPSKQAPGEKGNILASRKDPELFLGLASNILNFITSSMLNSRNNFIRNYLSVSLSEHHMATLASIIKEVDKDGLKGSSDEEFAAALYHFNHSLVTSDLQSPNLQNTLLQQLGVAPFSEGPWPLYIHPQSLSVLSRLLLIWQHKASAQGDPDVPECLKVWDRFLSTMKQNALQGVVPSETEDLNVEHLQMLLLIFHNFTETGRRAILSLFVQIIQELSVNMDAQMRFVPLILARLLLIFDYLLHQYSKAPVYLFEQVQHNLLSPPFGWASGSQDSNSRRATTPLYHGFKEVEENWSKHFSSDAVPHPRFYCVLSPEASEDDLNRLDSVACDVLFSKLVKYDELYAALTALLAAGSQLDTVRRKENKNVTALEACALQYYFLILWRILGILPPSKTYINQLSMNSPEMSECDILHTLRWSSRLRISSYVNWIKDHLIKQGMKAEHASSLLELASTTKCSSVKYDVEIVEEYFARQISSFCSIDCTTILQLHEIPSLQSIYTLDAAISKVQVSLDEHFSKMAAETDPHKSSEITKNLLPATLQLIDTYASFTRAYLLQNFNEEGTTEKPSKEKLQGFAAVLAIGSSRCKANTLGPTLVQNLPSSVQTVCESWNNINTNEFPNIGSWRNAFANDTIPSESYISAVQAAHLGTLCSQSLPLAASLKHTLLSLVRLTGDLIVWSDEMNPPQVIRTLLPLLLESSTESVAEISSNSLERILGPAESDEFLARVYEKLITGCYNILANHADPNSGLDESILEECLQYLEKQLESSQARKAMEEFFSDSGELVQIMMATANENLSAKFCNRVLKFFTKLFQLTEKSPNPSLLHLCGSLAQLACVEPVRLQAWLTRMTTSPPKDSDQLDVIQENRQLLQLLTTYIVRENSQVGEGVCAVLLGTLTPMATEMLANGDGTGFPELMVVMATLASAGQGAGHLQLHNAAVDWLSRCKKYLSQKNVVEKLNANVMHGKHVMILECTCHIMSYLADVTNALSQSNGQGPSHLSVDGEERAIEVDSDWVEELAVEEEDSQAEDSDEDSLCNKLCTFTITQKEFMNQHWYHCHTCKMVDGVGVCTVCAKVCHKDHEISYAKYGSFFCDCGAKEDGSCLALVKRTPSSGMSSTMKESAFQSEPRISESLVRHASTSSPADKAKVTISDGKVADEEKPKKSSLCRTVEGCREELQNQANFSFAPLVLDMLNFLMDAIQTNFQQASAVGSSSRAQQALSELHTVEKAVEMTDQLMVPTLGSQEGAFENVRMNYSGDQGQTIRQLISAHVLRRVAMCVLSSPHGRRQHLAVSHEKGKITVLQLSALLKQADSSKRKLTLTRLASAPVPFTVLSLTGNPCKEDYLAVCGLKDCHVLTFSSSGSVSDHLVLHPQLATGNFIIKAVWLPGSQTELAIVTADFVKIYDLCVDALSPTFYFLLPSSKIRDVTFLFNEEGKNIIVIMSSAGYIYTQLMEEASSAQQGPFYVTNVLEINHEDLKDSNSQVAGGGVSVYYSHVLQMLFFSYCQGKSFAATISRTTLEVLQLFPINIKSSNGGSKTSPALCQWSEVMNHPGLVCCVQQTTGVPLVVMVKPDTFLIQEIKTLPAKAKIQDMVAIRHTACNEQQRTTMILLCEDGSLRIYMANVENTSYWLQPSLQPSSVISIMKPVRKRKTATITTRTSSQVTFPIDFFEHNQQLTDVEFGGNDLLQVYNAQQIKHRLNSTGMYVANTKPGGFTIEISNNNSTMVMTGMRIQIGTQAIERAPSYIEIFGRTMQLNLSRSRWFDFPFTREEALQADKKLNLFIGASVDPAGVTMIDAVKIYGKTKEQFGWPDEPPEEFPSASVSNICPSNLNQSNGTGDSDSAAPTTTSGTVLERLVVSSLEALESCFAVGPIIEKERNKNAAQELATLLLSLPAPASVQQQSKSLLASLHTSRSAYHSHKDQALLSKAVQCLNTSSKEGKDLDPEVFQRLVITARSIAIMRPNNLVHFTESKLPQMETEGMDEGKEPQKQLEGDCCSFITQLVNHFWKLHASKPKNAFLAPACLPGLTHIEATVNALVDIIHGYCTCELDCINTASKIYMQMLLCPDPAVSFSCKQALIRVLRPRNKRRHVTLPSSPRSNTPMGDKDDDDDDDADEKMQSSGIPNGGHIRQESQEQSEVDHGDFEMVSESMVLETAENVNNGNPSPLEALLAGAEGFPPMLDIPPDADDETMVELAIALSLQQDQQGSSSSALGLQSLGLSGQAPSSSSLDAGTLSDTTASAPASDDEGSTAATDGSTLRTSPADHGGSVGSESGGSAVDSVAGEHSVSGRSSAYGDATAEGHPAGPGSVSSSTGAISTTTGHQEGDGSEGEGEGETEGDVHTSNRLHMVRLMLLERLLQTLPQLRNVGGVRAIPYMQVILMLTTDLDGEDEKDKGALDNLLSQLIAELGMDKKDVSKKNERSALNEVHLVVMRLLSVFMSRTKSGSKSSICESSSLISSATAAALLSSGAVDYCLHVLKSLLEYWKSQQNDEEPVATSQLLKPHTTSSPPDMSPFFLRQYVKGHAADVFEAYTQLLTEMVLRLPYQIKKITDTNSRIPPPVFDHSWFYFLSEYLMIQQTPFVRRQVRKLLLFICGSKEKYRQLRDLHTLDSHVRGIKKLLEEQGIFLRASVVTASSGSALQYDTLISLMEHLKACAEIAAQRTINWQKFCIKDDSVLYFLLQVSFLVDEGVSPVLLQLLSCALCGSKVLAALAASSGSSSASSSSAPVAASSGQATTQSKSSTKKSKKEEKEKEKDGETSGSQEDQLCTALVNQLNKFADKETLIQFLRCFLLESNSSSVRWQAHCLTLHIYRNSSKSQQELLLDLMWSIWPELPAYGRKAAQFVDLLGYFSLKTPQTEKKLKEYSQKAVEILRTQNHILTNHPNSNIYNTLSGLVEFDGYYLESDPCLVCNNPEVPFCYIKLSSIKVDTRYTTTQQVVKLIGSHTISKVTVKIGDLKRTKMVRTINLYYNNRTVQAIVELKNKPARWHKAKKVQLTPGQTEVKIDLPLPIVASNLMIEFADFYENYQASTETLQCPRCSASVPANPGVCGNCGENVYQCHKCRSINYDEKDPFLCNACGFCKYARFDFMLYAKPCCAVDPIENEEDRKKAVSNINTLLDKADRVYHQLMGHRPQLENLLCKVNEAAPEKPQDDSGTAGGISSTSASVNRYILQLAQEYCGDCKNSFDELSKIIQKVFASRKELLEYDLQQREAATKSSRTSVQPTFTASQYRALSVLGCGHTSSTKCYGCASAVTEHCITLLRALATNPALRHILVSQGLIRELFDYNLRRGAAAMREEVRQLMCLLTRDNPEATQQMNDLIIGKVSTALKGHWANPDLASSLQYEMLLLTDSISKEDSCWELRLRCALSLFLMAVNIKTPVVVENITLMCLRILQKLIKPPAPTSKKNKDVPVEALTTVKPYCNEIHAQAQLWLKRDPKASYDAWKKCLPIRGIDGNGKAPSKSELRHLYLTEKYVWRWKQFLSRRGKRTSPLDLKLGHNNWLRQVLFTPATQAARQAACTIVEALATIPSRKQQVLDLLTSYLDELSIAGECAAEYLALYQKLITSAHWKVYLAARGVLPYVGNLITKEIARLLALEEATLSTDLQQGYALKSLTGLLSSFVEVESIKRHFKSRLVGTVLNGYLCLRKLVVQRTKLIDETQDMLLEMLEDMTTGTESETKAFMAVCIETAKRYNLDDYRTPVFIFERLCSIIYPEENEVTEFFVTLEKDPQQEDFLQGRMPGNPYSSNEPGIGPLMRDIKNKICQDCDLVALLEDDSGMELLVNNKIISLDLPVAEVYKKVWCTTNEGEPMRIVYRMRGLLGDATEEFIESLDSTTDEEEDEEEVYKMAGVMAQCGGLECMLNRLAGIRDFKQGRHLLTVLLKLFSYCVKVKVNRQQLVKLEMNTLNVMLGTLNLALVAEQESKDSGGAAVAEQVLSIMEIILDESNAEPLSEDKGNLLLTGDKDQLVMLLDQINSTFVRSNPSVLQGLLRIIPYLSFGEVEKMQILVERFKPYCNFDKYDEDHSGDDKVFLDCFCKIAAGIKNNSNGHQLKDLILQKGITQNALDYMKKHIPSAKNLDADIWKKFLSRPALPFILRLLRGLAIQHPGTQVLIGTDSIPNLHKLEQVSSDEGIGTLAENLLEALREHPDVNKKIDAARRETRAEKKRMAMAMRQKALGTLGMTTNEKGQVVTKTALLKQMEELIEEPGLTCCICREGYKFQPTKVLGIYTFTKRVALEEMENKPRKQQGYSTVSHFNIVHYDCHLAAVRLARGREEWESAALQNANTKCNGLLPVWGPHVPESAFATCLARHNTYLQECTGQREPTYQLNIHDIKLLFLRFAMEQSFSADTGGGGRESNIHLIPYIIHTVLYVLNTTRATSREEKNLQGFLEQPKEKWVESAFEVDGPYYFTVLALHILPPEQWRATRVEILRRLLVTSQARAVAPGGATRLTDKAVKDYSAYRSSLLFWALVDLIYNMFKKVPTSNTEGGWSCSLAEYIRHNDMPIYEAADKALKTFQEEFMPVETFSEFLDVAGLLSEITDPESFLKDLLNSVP
UniProt Q9H3M7: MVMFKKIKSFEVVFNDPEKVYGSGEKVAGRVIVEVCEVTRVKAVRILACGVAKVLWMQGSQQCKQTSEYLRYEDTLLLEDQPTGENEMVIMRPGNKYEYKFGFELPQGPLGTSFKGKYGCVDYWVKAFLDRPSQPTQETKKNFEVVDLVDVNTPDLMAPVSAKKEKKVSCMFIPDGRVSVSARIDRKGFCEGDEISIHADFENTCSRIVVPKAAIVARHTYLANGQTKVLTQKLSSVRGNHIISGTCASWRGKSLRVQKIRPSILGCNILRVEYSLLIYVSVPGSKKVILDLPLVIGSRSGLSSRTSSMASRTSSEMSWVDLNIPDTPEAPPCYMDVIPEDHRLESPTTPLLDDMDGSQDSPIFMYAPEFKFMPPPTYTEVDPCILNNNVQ
UniProt Q9GZZ9, whole entry, looked up: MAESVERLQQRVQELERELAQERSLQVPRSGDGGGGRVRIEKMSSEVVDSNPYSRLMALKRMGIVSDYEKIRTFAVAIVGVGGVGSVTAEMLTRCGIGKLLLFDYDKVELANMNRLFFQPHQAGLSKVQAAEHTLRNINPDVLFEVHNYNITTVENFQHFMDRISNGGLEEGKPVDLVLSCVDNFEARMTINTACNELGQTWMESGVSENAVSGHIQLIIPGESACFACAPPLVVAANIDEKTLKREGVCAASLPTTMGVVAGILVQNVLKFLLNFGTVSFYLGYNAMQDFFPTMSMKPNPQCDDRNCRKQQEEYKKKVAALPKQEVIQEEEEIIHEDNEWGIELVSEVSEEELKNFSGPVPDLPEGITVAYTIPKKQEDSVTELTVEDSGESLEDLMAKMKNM
UniProt Q9BZL1: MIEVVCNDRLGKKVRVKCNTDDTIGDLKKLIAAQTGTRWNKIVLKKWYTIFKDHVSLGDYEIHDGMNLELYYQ
UniProt Q9Y5Z9: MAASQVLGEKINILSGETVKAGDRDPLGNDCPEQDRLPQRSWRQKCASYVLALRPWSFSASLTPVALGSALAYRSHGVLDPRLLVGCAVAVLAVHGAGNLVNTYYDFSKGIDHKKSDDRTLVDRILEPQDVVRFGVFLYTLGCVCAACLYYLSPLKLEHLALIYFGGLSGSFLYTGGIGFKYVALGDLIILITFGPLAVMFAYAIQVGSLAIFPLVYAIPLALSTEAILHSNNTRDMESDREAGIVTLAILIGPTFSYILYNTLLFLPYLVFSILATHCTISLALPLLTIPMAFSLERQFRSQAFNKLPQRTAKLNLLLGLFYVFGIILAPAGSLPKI

Columns and labels:
Assay in all cases: log2 fold change, soluble protein after heating vs DMSO (PISA); higher = thermal stabilisation; K562 lysate, 10 uM; active = over 0.2 and 3.5 SD of the protein, either way, in both replicates (recomputed)
alvocidib = compound: CN1CC[C@H](c2c(O)cc(O)c3c(=O)cc(-c4ccccc4Cl)oc23)[C@H](O)C1 [alvocidib]
In short: (§1)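 K562 pellets were dounce-homogenised in PBS pH 7.4 containing 1 mM MgCl2, and the crude extract, at 1 mg/mL protein, was exposed to 10 μM compound for 30 min. Aliquots were heated for 3 min across 48°C-58°C, pooled, brought to 0.5% NP-40 at 4°C and spun at 21,000xg for 90 min, with the supernatant taken as soluble protein. TMTpro 16plex LC-MS/MS with equalised channel sums quantified that protein. Values are log-two fold changes in thermal stability relative to solvent controls, taken from duplicates.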

Tubastatin A = compound: CN1CCc2c(c3ccccc3n2Cc2ccc(C(=O)NO)cc2)C1 [Tubastatin A]
In short: as §1

[1] = compound: CNC(=O)C1=CC=CC=C1NC2=NC(=NC=C2Cl)NC3=C(C=C(C=C3)N4CCOCC4)OC
In short: as §1

[2] = compound: CNc1nc(-c2ccc3c(N)n[nH]c3c2)cc(N2C[C@@H](C(=O)NC3CCCCC3)CC[C@H]2C)n1
In short: as §1

encorafenib = compound: COC(=O)N[C@@H](C)CNc1nccc(-c2cn(C(C)C)nc2-c2cc(Cl)cc(NS(C)(=O)=O)c2F)n1 [encorafenib]
In short: as §1

[3] = compound: COC(=O)[C@H](CCSC)NC(=O)C1=C(C=C(C=C1)NC[C@H](CS)N)C2=CC=CC=C2
In short: as §1

alisertib = compound: COc1cc(Nc2ncc3c(n2)-c2ccc(Cl)cc2C(c2c(F)cccc2OC)=NC3)ccc1C(=O)O [alisertib]
In short: as §1

[4] = compound: COc1cc2nc(-c3cc(F)ccc3O)nc(N[C@@H]3CNC[C@H]3C(C)(C)O)c2cc1OC
In short: as §1

gefitinib = compound: COc1cc2ncnc(Nc3ccc(F)c(Cl)c3)c2cc1OCCCN1CCOCC1 [gefitinib]
In short: as §1

lapatinib = compound: CS(=O)(=O)CCNCc1ccc(-c2ccc3ncnc(Nc4ccc(OCc5cccc(F)c5)c(Cl)c4)c3c2)o1 [lapatinib]
In short: as §1

[5] = compound: C[C@H](C1=CC=C(C=C1)C(=O)NC2=C3C=CNC3=NC=C2)N
In short: as §1

duvelisib = compound: C[C@H](Nc1ncnc2nc[nH]c12)c1cc2cccc(Cl)c2c(=O)n1-c1ccccc1 [duvelisib]
In short: as §1

gandotinib = compound: Cc1cc(Nc2cc(CN3CCOCC3)c3nc(C)c(Cc4ccc(Cl)cc4F)n3n2)n[nH]1 [gandotinib]
In short: as §1

tozasertib = compound: Cc1cc(Nc2cc(N3CCN(C)CC3)nc(Sc3ccc(NC(=O)C4CC4)cc3)n2)n[nH]1 [tozasertib]
In short: as §1

[6] = compound: Cc1cccc(CC(=O)N2CCc3c2ccc(-c2cn(C)c4ncnc(N)c24)c3F)n1
In short: as §1

defactinib = compound: CNC(=O)c1ccc(Nc2ncc(C(F)(F)F)c(NCc3nccnc3N(C)S(C)(=O)=O)n2)cc1 [defactinib]
In short: as §1

pictilisib = compound: CS(=O)(=O)N1CCN(Cc2cc3nc(-c4cccc5[nH]ncc45)nc(N4CCOCC4)c3s2)CC1 [pictilisib]
In short: as §1

crizotinib = compound: C[C@@H](Oc1cc(-c2cnn(C3CCNCC3)c2)cnc1N)c1c(Cl)ccc(F)c1Cl [crizotinib]
In short: as §1

doramapimod = compound: Cc1ccc(-n2nc(C(C)(C)C)cc2NC(=O)Nc2ccc(OCCN3CCOCC3)c3ccccc23)cc1 [doramapimod]
In short: as §1

bafetinib = compound: Cc1ccc(NC(=O)c2ccc(CN3CC[C@H](N(C)C)C3)c(C(F)(F)F)c2)cc1Nc1nccc(-c2cncnc2)n1 [bafetinib]
In short: as §1

| Target | log2 fold change (alvocidib) | log2 fold change (Tubastatin A) | log2 fold change [1] | log2 fold change [2] | log2 fold change (encorafenib) | log2 fold change [3] | log2 fold change (alisertib) | log2 fold change [4] | log2 fold change (gefitinib) | log2 fold change (lapatinib) | log2 fold change [5] | log2 fold change (duvelisib) | log2 fold change (gandotinib) | log2 fold change (tozasertib) | log2 fold change [6] | log2 fold change (defactinib) | log2 fold change (pictilisib) | log2 fold change (crizotinib) | log2 fold change (doramapimod) | log2 fold change (bafetinib) |
| --- | --- | --- | --- | --- | --- | --- | --- | --- | --- | --- | --- | --- | --- | --- | --- | --- | --- | --- | --- | --- |
| U2AF1L5 (UniProt P0DN76) | inactive: -0.58 | inactive: -0.193 | inactive: -0.044 | inactive: -0.023 | inactive: -0.101 | inactive: 0.096 | inactive: -0.045 | inactive: -0.013 | inactive: -0.061 | inactive: 0.091 | active: -0.904 | inactive: 0.021 | inactive: 0.114 | inactive: 0.207 | inactive: 0.342 | – | – | – | – | – |
| UBR4 (UniProt Q5T4S7) | inactive: 0.009 | inactive: -0.06 | inactive: 0.006 | inactive: -0.034 | inactive: 0.003 | inactive: 0.018 | inactive: 0.001 | inactive: 0.001 | inactive: -0.029 | inactive: -0.023 | inactive: -0.017 | inactive: -0.001 | inactive: -0.08 | inactive: 0 | inactive: 0.037 | inactive: 0.006 | inactive: -0.015 | inactive: -0.038 | inactive: 0.01 | inactive: -0.038 |
| TUBB4A (UniProt P04350) | inactive: -0.006 | inactive: -0.113 | inactive: -0.029 | inactive: 0.051 | inactive: -0.027 | inactive: 0.112 | inactive: 0.021 | inactive: -0.002 | inactive: 0.101 | inactive: -0.095 | inactive: -0.081 | inactive: 0.059 | inactive: 0.051 | inactive: -0.138 | inactive: -0.01 | – | inactive: -0.055 | inactive: -0.001 | inactive: -0.025 | inactive: -0.026 |
| TXNIP (UniProt Q9H3M7) | inactive: 0.017 | inactive: -0.021 | inactive: 0.037 | inactive: 0.046 | inactive: 0.011 | inactive: 0.067 | inactive: -0.015 | – | inactive: -0.004 | – | inactive: 0.143 | inactive: 0 | inactive: -0.089 | inactive: -0.015 | inactive: -0.037 | inactive: 0.042 | inactive: 0.029 | inactive: -0.045 | inactive: 0.019 | inactive: -0.042 |
| UBA5 (UniProt Q9GZZ9) | inactive: -0.001 | inactive: -0.012 | inactive: -0.011 | inactive: -0.05 | inactive: -0.004 | inactive: 0 | inactive: 0.02 | inactive: -0.004 | inactive: 0.052 | inactive: -0.017 | inactive: -0.012 | inactive: 0.038 | inactive: -0.023 | inactive: -0.065 | inactive: -0.008 | inactive: 0.024 | inactive: -0.017 | inactive: -0.02 | inactive: 0.048 | inactive: 0.01 |
| UBL5 (UniProt Q9BZL1) | inactive: -0.117 | inactive: 0.023 | inactive: -0.048 | inactive: -0.045 | inactive: -0.012 | inactive: -0.06 | inactive: 0.039 | – | inactive: -0.141 | – | inactive: -0.194 | inactive: -0.042 | inactive: 0.042 | inactive: 0.138 | inactive: 0.104 | inactive: 0.041 | inactive: -0.036 | inactive: 0.072 | inactive: 0.013 | inactive: -0.034 |
| UBIAD1 (UniProt Q9Y5Z9) | inactive: -0.016 | inactive: 0.025 | inactive: 0.008 | inactive: 0.157 | inactive: 0.067 | inactive: -0.102 | inactive: 0.112 | inactive: -0.061 | inactive: -0.048 | inactive: 0.031 | inactive: 0.036 | inactive: -0.054 | inactive: 0 | inactive: -0.024 | inactive: 0.016 | inactive: 0.031 | – | inactive: -0.048 | inactive: -0.014 | – |
| UCHL5 (UniProt Q5LJA9) | inactive: 0.049 | inactive: -0.153 | inactive: 0.005 | inactive: -0.156 | inactive: 0.007 | inactive: 0.091 | – | inactive: -0.011 | – | inactive: 0.027 | inactive: -0.07 | inactive: 0.082 | inactive: -0.074 | inactive: 0.003 | inactive: -0.156 | inactive: 0.015 | inactive: 0.001 | inactive: -0.036 | inactive: 0.067 | inactive: -0.07 |
